# Taken from: PubChem BioAssay AID493246 (Drosophila RNAi Screening Center, 2011)
# Aim: 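Genes fly cells need to grow and stay alive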 (primary screen)
# Cell system: Drosophila Kc and S2R+ cells
# Reagent: long dsRNA against Drosophila genes
# Measurement: 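Raw, unnormalised count of remaining cells in each well; per-plate z-scores of cell number underlie the calls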
# Reading the numbers: Kc cell number and S2R+ cell number: higher = more cells remaining
# Active means: 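Active when the per-plate z-score of cell number is 3 or more in the direction of fewer cells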
# The deposit covers about 21,000 reagents; shown is a random part of those with a known target gene and a result. In the full data, 429 (2%) were called active. 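Values are raw and not normalised between plates; calls rest on per-plate z-scores that were not deposited.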 Names joined by + are all predicted targets of the reagent. Not stated in the record: the amount of reagent, the time to read-out.
target gene,amplicon,"Kc cell number, rep 1","Kc cell number, rep 2","S2R+ cell number, rep 1","S2R+ cell number, rep 2",outcome
cuff (cutoff),DRSC06315,1.99e6,1.79e6,1.32e6,1.47e6,inactive
Arfrp1 (ADP-ribosylation factor related protein 1),DRSC18417,6.05e5,,8.37e5,,inactive
mib2 (mind bomb 2),DRSC02623,1.05e6,1.10e6,1.17e6,1.19e6,inactive
tsu (tsunagi),DRSC07265,1.67e6,1.86e6,1.23e6,1.39e6,inactive
CG9691,DRSC18441,1.56e6,1.53e6,9.78e5,1.13e6,inactive
CG18545,DRSC15343,1.34e6,1.43e6,1.25e6,1.28e6,inactive
Recs1,DRSC16545,1.55e6,1.46e6,1.01e6,1.16e6,inactive
CG12795,DRSC00354,1.49e6,1.43e6,1.10e6,1.28e6,inactive
kin17,DRSC11890,1.63e6,1.67e6,1.11e6,1.29e6,inactive
CG31326,DRSC16532,1.50e6,1.49e6,1.06e6,1.23e6,inactive
CG3942,DRSC15525,1.54e6,1.49e6,1.29e6,1.35e6,inactive
CG9395,DRSC03218,1.66e6,1.59e6,1.32e6,1.50e6,inactive
CG32271,DRSC08198,1.59e6,1.54e6,1.08e6,1.42e6,inactive
CG12637,DRSC17845,1.73e6,1.67e6,1.08e6,1.31e6,inactive
Tmf (TATA element modulatory factor),DRSC18368,1.42e6,1.42e6,1.03e6,1.11e6,inactive
CG12608,DRSC19472,5.54e5,,8.05e5,,inactive
Flad2 (Flavin adenine dinucleotide synthetase 2),DRSC02531,1.54e6,1.55e6,1.26e6,1.42e6,inactive
CG9308,DRSC04539,1.58e6,1.68e6,1.40e6,4.08e5,inactive
Jheh3 (Juvenile hormone epoxide hydrolase 3),DRSC06533,1.34e6,1.38e6,1.14e6,1.13e6,inactive
Gpb5 (Glycoprotein hormone beta 5),DRSC21241,1.32e6,1.42e6,1.06e6,1.21e6,inactive
LysX (Lysozyme X),DRSC08678,1.36e6,1.40e6,9.80e5,1.26e6,inactive
Tsp2A (Tetraspanin 2A),DRSC18584,1.41e6,1.44e6,1.02e6,1.14e6,inactive
"hgo (homogentisate 1,2-dioxygenase)",DRSC03544,1.88e6,1.85e6,1.20e6,1.36e6,inactive
MESR3 (Misexpression suppressor of ras 3),DRSC02463,1.58e6,1.58e6,1.19e6,2.81e5,inactive
NdufA3 (NADH:ubiquinone oxidoreductase subunit A3),DRSC18431,1.69e6,1.63e6,8.50e5,9.56e5,inactive
CG11110,DRSC06037,1.61e6,1.45e6,1.06e6,1.41e6,inactive
CG34297,DRSC12410,1.42e6,1.53e6,1.05e6,1.19e6,inactive
CG2061,DRSC19348,5.37e5,,8.19e5,,inactive
CG15676,DRSC04267,1.43e6,1.47e6,1.31e6,3.60e5,inactive
Ptp61F (Protein tyrosine phosphatase 61F),DRSC08683,1.24e6,1.22e6,7.91e5,9.64e5,inactive
Rift (Riboflavin transporter),DRSC14330,1.49e6,1.44e6,1.01e6,1.07e6,inactive
GABA-B-R3 (metabotropic GABA-B receptor subtype 3),DRSC00561,1.56e6,1.56e6,1.07e6,1.21e6,inactive
CkIIalpha-i3 (CKII-alpha subunit interactor-3),DRSC08651,1.12e6,1.44e6,9.36e5,9.92e5,inactive
Obp22a (Odorant-binding protein 22a),DRSC00088,1.55e6,1.58e6,1.16e6,1.30e6,inactive
hpRNA:CR18854 (hairpin RNA:CR18854),DRSC02702,1.68e6,1.75e6,1.34e6,1.51e6,inactive
Ir94e (Ionotropic receptor 94e),DRSC15229,1.39e6,1.53e6,1.05e6,1.10e6,inactive
Cpr60D (Cuticular protein 60D),DRSC04492,1.73e6,1.84e6,1.25e6,1.39e6,inactive
List (Lithium-inducible SLC6 transporter),DRSC06520,1.61e6,1.68e6,1.19e6,1.34e6,inactive
CG17770 + Acam,DRSC14110,1.40e6,1.47e6,9.92e5,1.07e6,inactive
CG17770 + Acam,DRSC15264,1.47e6,1.46e6,9.00e5,1.00e6,inactive
CG34347,DRSC14047,1.24e6,1.45e6,1.06e6,1.09e6,inactive
CG34347,DRSC14305,1.53e6,1.65e6,1.10e6,1.12e6,inactive
CG34347,DRSC15104,1.36e6,1.49e6,9.77e5,1.10e6,inactive
Tudor-SN (Tudor staphylococcal nuclease),DRSC08581,1.52e6,1.55e6,1.21e6,1.29e6,inactive
Hnf4 (Hepatocyte nuclear factor 4),DRSC01032,1.51e6,1.57e6,1.03e6,1.18e6,inactive
sxc (super sex combs),DRSC04911,1.67e6,1.62e6,1.24e6,1.27e6,inactive
Mlc2 (Myosin light chain 2),DRSC16741,5.74e5,,8.48e5,,inactive
CG15464 (retired record),DRSC18047,1.53e6,1.62e6,1.01e6,1.22e6,inactive
Or88a (Odorant receptor 88a),DRSC16770,1.25e6,1.28e6,1.14e6,1.25e6,inactive
mino (minotaur),DRSC14132,5.29e5,,8.37e5,,inactive
Fancm (Fanconi anemia group M helicase),DRSC16348,1.45e6,1.55e6,1.14e6,1.21e6,inactive
CG15373,DRSC19663,1.47e6,1.46e6,1.08e6,1.07e6,inactive
CG14131,DRSC10135,1.42e6,1.41e6,1.06e6,1.18e6,inactive
shot (short stop),DRSC05459,1.45e6,1.43e6,8.83e5,1.02e6,inactive
shot (short stop),DRSC05460,1.42e6,1.38e6,9.65e5,1.12e6,inactive
shot (short stop),DRSC07682,1.39e6,1.42e6,1.04e6,1.13e6,inactive
schuy (schumacher-levy),DRSC10284,1.60e6,1.67e6,1.36e6,1.46e6,inactive
CG42500,DRSC14822,1.50e6,1.17e6,9.78e5,9.64e5,inactive
CG7251,DRSC03039,1.35e6,1.42e6,5.98e5,9.44e5,inactive

No new results follow: entries from further up.
target gene,amplicon,"Kc cell number, rep 1","Kc cell number, rep 2","S2R+ cell number, rep 1","S2R+ cell number, rep 2",outcome
CG15373,DRSC19663,1.47e6,1.46e6,1.08e6,1.07e6,inactive
CG14131,DRSC10135,1.42e6,1.41e6,1.06e6,1.18e6,inactive
shot (short stop),DRSC05459,1.45e6,1.43e6,8.83e5,1.02e6,inactive
shot (short stop),DRSC05460,1.42e6,1.38e6,9.65e5,1.12e6,inactive
shot (short stop),DRSC07682,1.39e6,1.42e6,1.04e6,1.13e6,inactive
schuy (schumacher-levy),DRSC10284,1.60e6,1.67e6,1.36e6,1.46e6,inactive
CG42500,DRSC14822,1.50e6,1.17e6,9.78e5,9.64e5,inactive
CG7251,DRSC03039,1.35e6,1.42e6,5.98e5,9.44e5,inactive
